From the supplement of paper PMC12889115
The list shows a part of the results. Values are raw readings; no control value is given beside them.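 First-pass screen: polymyxin B was added at a level that permeabilizes the Salmonella outer membrane while sparing the inner membrane. DMSO wells, with and without polymyxin B, defined maximum growth. Because plates differed from one another, each plate's data were ranked separately and the compounds with the lowest OD600 were carried forward as hits.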

Test system: Salmonella enterica serovar Typhimurium SL1344
Assay: bacterial growth OD600 after 18 h with compound and polymyxin B; higher = more bacterial growth (less inhibition)
Conditions: 50 µM, Mueller-Hinton broth

Row | SMILES | bacterial growth OD600 (polymyxin B 0.75 µg/mL) | bacterial growth OD600 (polymyxin B 1 µg/mL)
1 | CC1CN(c2ccccc2)CCN1C(=O)CC1(c2ccccc2Cl)CC(=O)N(CCN(C)C)C1=O (stereo not given) | 0.669 | 
2 | O=C(CCN1CCCC1=O)NCc1cccnc1N1CCCCCCC1 | 0.847 | 
3 | CCC(=O)N(C)C(Cc1ccc(F)cc1F)C1CCN(C(=O)c2ccc(F)c(Cl)c2)CC1 (stereo not given) | 0.766 | 
4 | COc1ccc(CNC(=O)CCC2CCCN(CC3CCCCC3)C2)c(OC)c1 (stereo not given) | 0.819 | 
5 | Cc1ccc(OCc2cc(C(=O)N(C)CCC(O)c3ccccc3)no2)cn1 (stereo not given) |  | 0.936
6 | CCOc1cccc(CN2CCc3c(C(=O)NCc4ccccc4OC)c(OC)cc(=O)n3CC2)c1 | 0.83 | 
7 | COc1cc(Cl)c(CN2CCOc3ccc(CN4C[C@@H](C)O[C@@H](C)C4)cc3C2)cc1OC | 0.039 | 
8 | C[C@H]1C(=O)N(C)CCN1C(=O)c1cn(Cc2ccccc2Cl)nn1 |  | 1.12
9 | COCCN1C(=O)CC(CC(=O)N(C)CCOc2ccc(C)cc2)(c2ccccc2F)C1=O (stereo not given) | 0.825 | 
10 | COc1cccc(CNC(=O)C2CCCN(c3nc(C)c4ccc(S(C)(=O)=O)cc4n3)C2)c1 (stereo not given) | 0.81 | 
11 | O=C(NCCc1ccccc1)C1CCC(=O)N(Cc2ccc(Cl)cc2)C1 (stereo not given) |  | 0.849
12 | Cc1cc(C(=O)NC2CCCN(CC3CCCCC3)C2)n(C)n1 (stereo not given) |  | 1.03
13 | COCCC(=O)N1CCC(C2CCN(Cc3cccc(F)c3F)CC2)C1 (stereo not given) | 0.841 | 
14 | CCN1CCN(CC(=O)NCc2cccnc2Oc2ccccc2F)CC1 |  | 1.17
15 | COc1ccc(CCN2CC(NC(=O)c3ccccn3)CC2=O)cc1 (stereo not given) |  | 0.857
16 | Cc1cccc(CN(C)C2CCCN(CCc3ccccc3)C2)n1 (stereo not given) |  | 0.829
17 | CN(C(=O)C1CCCCC1)C1CCCN(Cc2ccccc2F)C1 (stereo not given) |  | 0.995
18 | O=C(NC1(c2ccccc2)CC1)C1CCC(=O)N(CCCN2CCCC2=O)C1 (stereo not given) |  | 0.957
19 | COCc1ccc(C(=O)N2CCCC(CCc3ccccc3C)C2)o1 (stereo not given) | 0 | 
20 | COCCC(=O)N1CCC(C(=O)Nc2ccc(-n3nc(C)cc3C)cc2)CC1 |  | 0.943
21 | COc1cccc(CC(C2CCN(C(=O)c3cccnc3OC)CC2)N(C)C(=O)c2ccn(C)n2)c1 (stereo not given) | 0.865 | 
22 | CC1(C(=O)N2CCC(C3CCN(c4ncccn4)CC3)C2)CCCCC1 (stereo not given) | 0.015 | 
23 | Cc1csc(S(=O)(=O)N2CCC(CO)(Cc3ccccc3Cl)CC2)c1 |  | 0.852
24 | COCCC(=O)N1CCC(Oc2ccc(C(=O)N[C@H]3CCCCNC3=O)cc2)CC1 |  | 0.839
25 | COc1ccc(CN2CCN(Cc3ccccc3F)CC2CCO)c(C)c1C (stereo not given) |  | 0.855
26 | C=CCC(=O)N1CCC(C2CCN(Cc3cccnc3)CC2)C1 (stereo not given) | 0.79 | 
27 | CCN(CC)C1CCN(C(=O)C2(N(C)C)Cc3ccccc3C2)C1 (stereo not given) | 0.814 | 
28 | COc1ccccc1CN1C(=O)O[C@@H]2CN(CCCn3cccn3)C[C@@H]21 | 0.816 | 
29 | O=C(CC1CC1)NC1CC(=O)N(CCCc2ccccc2)C1 (stereo not given) |  | 0.885
30 | CCOC(=O)N1CCN(C(=O)c2ccc(N3CCC(NC4CCOC(C)(C)C4)CC3)cc2)CC1 (stereo not given) | 0.841 | 

Arranged by number of heavy atoms (smallest number first): 3 of the compounds above.
Row | SMILES | bacterial growth OD600 (polymyxin B 0.75 µg/mL) | bacterial growth OD600 (polymyxin B 1 µg/mL)
26 | C=CCC(=O)N1CCC(C2CCN(Cc3cccnc3)CC2)C1 (stereo not given) | 0.79 | 
27 | CCN(CC)C1CCN(C(=O)C2(N(C)C)Cc3ccccc3C2)C1 (stereo not given) | 0.814 | 
14 | CCN1CCN(CC(=O)NCc2cccnc2Oc2ccccc2F)CC1 |  | 1.17
